Source: PubChem BioAssay AID1347426 (Functional Genomics Laboratory (NCATS/FGL), 2020)
In all, about 31,000 sequences went through this assay and about 1,400 (4.5%) were called active.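 Rule for the calls: active = median seed-adjusted z-score above 1 or below -1; inactive = the rest.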 The list shows a part of the results.

Experiment: Novel Modifiers of Survival Motor Neuron (SMN) Protein: Gene Identification via Genome-wide siRNA Screen;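 note: luminescence tracks full-length SMN protein made from the SMN2 reporter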
Conditions: HEK293T SMN2-luciferase reporter, siRNA knockdown, 72 h; actives lie on both sides
Outline: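 Each of three siRNAs per gene is reverse-transfected (1 pmol) into reporter HEK293T cells whose luciferase output tracks SMN protein level. After 72 h culture, ONE-Glo luminescence is control-normalized, log10-transformed and MAD-standardized; Common Seed Analysis deprioritizes seed-driven hits.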

**Q.** With CGACAUGAUUAAUGGUACATT against CD36 as the sequence, how does the median seed-adjusted z-score read?
**A.** inactive: -0.000845

**Q.** With CGAUGGAGCUCUAUCAAAUTT against ISG20 as the sequence, how does the median seed-adjusted z-score read?
**A.** inactive: 0.0209

**Q.** Which median seed-adjusted z-score does the source give for UGAGAUUUCGGAAUCAGAATT against TSPAN31 here?
**A.** active: -1.13

**Q.** With CGUUGAUUCUGAUGGAUCATT against ACAD9 as the sequence, how does the median seed-adjusted z-score read?
**A.** inactive: -0.384

**Q.** With AAACCGCCCUACUCUUACATT against FOXB2 as the sequence, how does the median seed-adjusted z-score read?
**A.** inactive: -0.0149

**Q.** For CGAGUUCGGUGGGUCAAUATT against SLC12A1, which median seed-adjusted z-score is on record?
**A.** inactive: -0.406

**Q.** For GCAUAAUUGCCUUUUCCUATT against ADRA2A, which median seed-adjusted z-score is on record?
**A.** inactive: -0.65

**Q.** With GGAGCUCCAGGGUUCAUAATT against ADRB3 as the sequence, how does the median seed-adjusted z-score read?
**A.** inactive: 0.17

**Q.** Which median seed-adjusted z-score does the source give for CACCACAAAUAAUAGCGAATT against TRPA1 here?
**A.** inactive: 0.341

**Q.** With GAGACUUCCUAAACAGGUATT against TRIM26 as the sequence, how does the median seed-adjusted z-score read?
**A.** inactive: 0

**Q.** For GCGACCCUGUUAUUCUGUATT against TM9SF1, which median seed-adjusted z-score is on record?
**A.** inactive: 0.14

**Q.** Which median seed-adjusted z-score does the source give for CAAGAUCCAGGACACCAAATT against MAP4K1 here?
**A.** inactive: 0

**Q.** For CCGUCUACACGGACUUCGATT against PIM1, which median seed-adjusted z-score is on record?
**A.** inactive: -0.409

**Q.** Which median seed-adjusted z-score does the source give for CAGUGCUACUUGGAAUGUUTT against RHOJ here?
**A.** inactive: -0.304

**Q.** With GGAGGCCUACUGUCCAUUATT against PIGC as the sequence, how does the median seed-adjusted z-score read?
**A.** inactive: -0.3

**Q.** For GGUAGAGACCUAUCUAAAATT against GTPBP8, which median seed-adjusted z-score is on record?
**A.** inactive: 0.834

**Q.** With GAUCCUAUGAAAACCUAUATT against PRKG1 as the sequence, how does the median seed-adjusted z-score read?
**A.** inactive: 0

**Q.** With CAACCCAACCAACACCAUUTT against OSBPL10 as the sequence, how does the median seed-adjusted z-score read?
**A.** inactive: 0.247

**Q.** Which median seed-adjusted z-score does the source give for AGAGCUGACUUACACGUGUTT against CD84 here?
**A.** inactive: 0.629

**Q.** Which median seed-adjusted z-score does the source give for CCUUUAGCUUUAUACACGATT against TDRD5 here?
**A.** inactive: -0.0961

**Q.** With AGGACAUGUUUGCACUACUTT against MGC29506 as the sequence, how does the median seed-adjusted z-score read?
**A.** inactive: 0

**Q.** Which median seed-adjusted z-score does the source give for CAGGCUUACUUCUAGCUUUTT against CRB1 here?
**A.** inactive: 0

**Q.** Which median seed-adjusted z-score does the source give for CAUCAAACCUGGGAACAAATT against ZNF225 here?
**A.** inactive: 0.0761

**Q.** Which median seed-adjusted z-score does the source give for ACAAUAUCCAGGACCACAATT against DAO here?
**A.** inactive: -0.00887

**Q.** With GGCGUGAAAUGACUAGAUUTT against ABCD3 as the sequence, how does the median seed-adjusted z-score read?
**A.** inactive: -0.24

**Q.** For GCCUGAUCGUAUUACACUUTT against PPP6C, which median seed-adjusted z-score is on record?
**A.** inactive: -0.0212

**Q.** For GCAUCGCAAACUUCACCAATT against ACLY, which median seed-adjusted z-score is on record?
**A.** inactive: 0.478

**Q.** Which median seed-adjusted z-score does the source give for GGAAGAAGAUAUUCGGGAATT against MYBL1 here?
**A.** inactive: 0.344

**Q.** With CGAGUCAACUGAUUGUGGATT against YKT6 as the sequence, how does the median seed-adjusted z-score read?
**A.** inactive: -0.065

**Q.** With GUUAUGCCUUUAUUAAUUUTT against SF3B4 as the sequence, how does the median seed-adjusted z-score read?
**A.** active: -2.56
